{"sequences": {"note": "The chains behind the UniProt entries cited, without tags or fusion partners. Residues count along the entry.", "UniProt P63015, 4-269": "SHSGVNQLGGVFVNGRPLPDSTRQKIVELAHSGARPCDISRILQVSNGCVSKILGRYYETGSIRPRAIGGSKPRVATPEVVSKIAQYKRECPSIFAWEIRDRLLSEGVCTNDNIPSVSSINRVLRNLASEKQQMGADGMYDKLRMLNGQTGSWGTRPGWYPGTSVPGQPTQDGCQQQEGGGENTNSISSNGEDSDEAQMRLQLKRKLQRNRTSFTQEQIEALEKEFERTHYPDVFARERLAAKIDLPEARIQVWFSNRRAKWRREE"}, "source": "paper PMC3544819", "note": "For at least one entry, the source does not settle the construct or the ends of the probe. At least one verdict was read from the data and is not stated in words by the source."}
{"molecular_target": "Pax6 PD/HD (UniProt P63015)", "assay": "EMSA", "details": "three Snca probes stated bound, sites 1, 3 and 4 named in text; recombinant protein"}
{"sequence": "GTTGGTTTTCTGCCTCTCAGAACTTTACCA (double strand) [Snca site 3]", "binding result": "binds"}
{"sequence": "CTAGTGATTTATGCAACAGCATAGG (double strand) [Snca site 1]", "binding result": "binds"}
{"sequence": "TCACCTATGCTGTTGCATAAATCACTAGTTTAT (double strand) [Snca site 4]", "binding result": "binds"}
